These are yes or no findings as the source states them, for the method shown. Some results given as binding are weak or reduced against the parent protein; the word gives no strength.
Legend:
[1] = biological target: human band 3 anion transporter (human) (UniProt P02730); test: cryo-EM structure; detergent-solubilized raw ghost membrane of human RBC reconstituted into MSP1E3D1 nanodiscs (POPC:POPE:POPG), Superose 6 in 20 mM HEPES-NaOH pH 7.5, 100 mM NaHCO3; Build and Retrieve processing; IF-IF, OF-IF and OF-OF dimers
[2] = biological target: human band 3 anion transporter (human) (UniProt P02730); test: cryo-EM structure; detergent-solubilized raw ghost membrane of human RBC reconstituted into MSP1E3D1 nanodiscs (POPC:POPE:POPG), enriched on Superose 6 in 20 mM Tris-HCl pH 7.5, 100 mM NaCl; Build and Retrieve processing; OF-IF and IF-IF dimers

B1: human band 3 anion transporter (natural protein, UniProt P02730 1-911, looked up)
chain: MEELQDDYEDMMEENLEQEEYEDPDIPESQMEEPAAHDTEATATDYHTTSHPGTHKVYVELQELVMDEKNQELRWMEAARWVQLEENLGENGAWGRPHLSHLTFWSLLELRRVFTKGTVLLDLQETSLAGVANQLLDRFIFEDQIRPQDREELLRALLLKHSHAGELEALGGVKPAVLTRSGDPSQPLLPQHSSLETQLFCEQGDGGTEGHSPSGILEKIPPDSEATLVLVGRADFLEQPVLGFVRLQEAAELEAVELPVPIRFLFVLLGPEAPHIDYTQLGRAAATLMSERVFRIDAYMAQSRGELLHSLEGFLDCSLVLPPTDAPSEQALLSLVPVQRELLRRRYQSSPAKPDSSFYKGLDLNGGPDDPLQQTGQLFGGLVRDIRRRYPYYLSDITDAFSPQVLAAVIFIYFAALSPAITFGGLLGEKTRNQMGVSELLISTAVQGILFALLGAQPLLVVGFSGPLLVFEEAFFSFCETNGLEYIVGRVWIGFWLILLVVLVVAFEGSFLVRFISRYTQEIFSFLISLIFIYETFSKLIKIFQDHPLQKTYNYNVLMVPKPQGPLPNTALLSLVLMAGTFFFAMMLRKFKNSSYFPGKLRRVIGDFGVPISILIMVLVDFFIQDTYTQKLSVPDGFKVSNSSARGWVIHPLGLRSEFPIWMMFASALPALLVFILIFLESQITTLIVSKPERKMVKGSGFHLDLLLVVGMGGVAALFGMPWLSATTVRSVTHANALTVMGKASTPGAAAQIQEVKEQRISGLLVAVLVGLSILMEPILSRIPLAVLFGIFLYMGVTSLSGIQLFDRILLLFKPPKYHPDVPYVKRVKTWRMHLFTGIQIICLAVLWVVKSTPASLALPFVLILTVPLRRVLLPLIFRNVELQCLDADDAKATFDEEEGRDEYDEVAMPV
modifications: N-linked N-acetylglucosamine (NAG) at N642
notes: band 3 anion transporter (AE1), human erythrocyte form of 911 amino acids, encoded by SLC4A1; endogenous protein from ghost membranes; the model of each subunit holds residues 372-888 except 743-751; Native protein from a crude membrane extract, identified from the cryo-EM maps (Build and Retrieve, Model Angelo); PC and PIP2 lipids lie at the subunit interface; also called band 3 transporter; …
In the case of B1, the binding [1] is reported as “binds” and the binding [2] is reported as “binds”.

— PMC11338459, “Cryo-EM structures of the human band 3 transporter indicate a transport mechanism involving the coupled movement of chloride and bicarbonate ions” (PLOS Biology, 2024)
